Some of the results follow.
Experiments:
Assay in all cases: log2 fold change, soluble protein after heating vs DMSO (PISA); higher = thermal stabilisation; K562 lysate, 10 uM; active = over 0.2 and 3.5 SD of the protein, either way, in both replicates (recomputed)
[1] = compound: CN1CC[C@H](c2c(O)cc(O)c3c(=O)cc(-c4ccccc4Cl)oc23)[C@H](O)C1 [alvocidib]
Procedure, shortened: (§1)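 Dounce homogenisation of K562 pellets in PBS pH 7.4 with 1 mM MgCl2 produced a crude extract, used at 1 mg/mL protein. Exposure to 10 μM compound lasted 30 min, and aliquots were then heated for 3 min across 48°C-58°C, pooled and brought to 0.5% NP-40 at 4°C. The supernatant after 21,000xg for 90 min was quantified by TMTpro 16plex LC-MS/MS with channel sums equalised. Duplicate values are given as log-two fold change in thermal stability relative to solvent controls.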

Chains of the proteins cited; added tags and fusions are not shown. Lines headed by an entry give the natural chain unless they say otherwise; changes in a name come on top.
UniProt P17050: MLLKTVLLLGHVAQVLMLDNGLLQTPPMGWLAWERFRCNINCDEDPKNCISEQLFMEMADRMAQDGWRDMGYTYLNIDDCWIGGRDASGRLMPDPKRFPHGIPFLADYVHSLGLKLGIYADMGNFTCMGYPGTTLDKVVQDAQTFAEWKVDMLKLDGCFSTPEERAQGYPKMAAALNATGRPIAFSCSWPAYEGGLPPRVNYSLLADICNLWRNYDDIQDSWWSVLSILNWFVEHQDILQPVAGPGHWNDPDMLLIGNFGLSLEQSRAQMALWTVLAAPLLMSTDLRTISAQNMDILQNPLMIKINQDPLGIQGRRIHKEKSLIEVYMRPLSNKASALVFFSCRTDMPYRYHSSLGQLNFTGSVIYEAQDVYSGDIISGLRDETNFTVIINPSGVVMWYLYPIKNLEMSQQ
UniProt P35579, whole entry, looked up: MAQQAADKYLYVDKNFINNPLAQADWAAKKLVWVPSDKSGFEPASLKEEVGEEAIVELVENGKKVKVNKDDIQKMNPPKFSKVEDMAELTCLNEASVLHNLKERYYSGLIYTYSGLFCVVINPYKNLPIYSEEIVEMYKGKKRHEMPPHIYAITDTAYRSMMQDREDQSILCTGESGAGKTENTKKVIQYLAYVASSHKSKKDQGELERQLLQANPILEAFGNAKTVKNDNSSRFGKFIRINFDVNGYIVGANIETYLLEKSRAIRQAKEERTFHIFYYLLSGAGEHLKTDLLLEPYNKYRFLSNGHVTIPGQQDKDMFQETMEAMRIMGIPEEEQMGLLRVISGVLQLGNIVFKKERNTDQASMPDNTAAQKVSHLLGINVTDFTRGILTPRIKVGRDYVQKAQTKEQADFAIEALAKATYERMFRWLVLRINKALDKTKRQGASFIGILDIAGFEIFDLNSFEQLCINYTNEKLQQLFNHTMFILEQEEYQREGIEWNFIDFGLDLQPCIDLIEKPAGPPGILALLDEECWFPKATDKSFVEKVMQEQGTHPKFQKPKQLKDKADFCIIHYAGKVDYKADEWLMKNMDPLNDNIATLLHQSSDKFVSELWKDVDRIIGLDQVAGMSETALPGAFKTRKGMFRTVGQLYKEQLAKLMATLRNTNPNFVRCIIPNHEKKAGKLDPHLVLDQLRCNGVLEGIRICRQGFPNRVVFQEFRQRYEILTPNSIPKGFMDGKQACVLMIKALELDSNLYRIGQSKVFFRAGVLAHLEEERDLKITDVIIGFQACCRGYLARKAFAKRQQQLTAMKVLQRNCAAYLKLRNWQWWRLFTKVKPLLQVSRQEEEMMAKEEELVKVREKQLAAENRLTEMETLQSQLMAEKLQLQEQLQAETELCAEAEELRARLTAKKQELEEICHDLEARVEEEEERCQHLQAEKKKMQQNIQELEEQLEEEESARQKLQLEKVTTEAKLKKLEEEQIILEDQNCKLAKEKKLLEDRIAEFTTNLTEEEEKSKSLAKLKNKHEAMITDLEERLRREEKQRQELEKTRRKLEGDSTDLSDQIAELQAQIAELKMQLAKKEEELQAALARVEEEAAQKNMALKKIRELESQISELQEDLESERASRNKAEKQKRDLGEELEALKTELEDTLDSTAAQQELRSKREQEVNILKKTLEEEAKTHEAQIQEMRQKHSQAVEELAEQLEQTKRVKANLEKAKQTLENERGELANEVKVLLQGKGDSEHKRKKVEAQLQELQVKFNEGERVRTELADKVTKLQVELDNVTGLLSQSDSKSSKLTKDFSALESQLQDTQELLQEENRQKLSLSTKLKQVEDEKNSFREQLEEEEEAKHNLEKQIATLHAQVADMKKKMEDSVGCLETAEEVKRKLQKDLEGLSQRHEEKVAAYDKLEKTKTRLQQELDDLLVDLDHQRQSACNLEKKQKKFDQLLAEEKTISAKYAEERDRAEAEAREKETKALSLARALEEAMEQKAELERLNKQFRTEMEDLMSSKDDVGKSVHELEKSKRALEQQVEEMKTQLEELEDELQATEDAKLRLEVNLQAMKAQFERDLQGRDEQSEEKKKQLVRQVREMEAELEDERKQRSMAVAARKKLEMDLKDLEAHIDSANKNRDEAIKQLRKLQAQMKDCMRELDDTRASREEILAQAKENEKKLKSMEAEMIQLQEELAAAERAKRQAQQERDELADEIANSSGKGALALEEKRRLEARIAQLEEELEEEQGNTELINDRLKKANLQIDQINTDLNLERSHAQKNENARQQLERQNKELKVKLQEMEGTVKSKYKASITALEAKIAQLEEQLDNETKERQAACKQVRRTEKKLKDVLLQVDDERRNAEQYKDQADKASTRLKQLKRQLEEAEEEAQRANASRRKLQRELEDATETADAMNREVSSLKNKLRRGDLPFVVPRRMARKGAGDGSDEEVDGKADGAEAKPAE
UniProt Q14686, whole entry, looked up: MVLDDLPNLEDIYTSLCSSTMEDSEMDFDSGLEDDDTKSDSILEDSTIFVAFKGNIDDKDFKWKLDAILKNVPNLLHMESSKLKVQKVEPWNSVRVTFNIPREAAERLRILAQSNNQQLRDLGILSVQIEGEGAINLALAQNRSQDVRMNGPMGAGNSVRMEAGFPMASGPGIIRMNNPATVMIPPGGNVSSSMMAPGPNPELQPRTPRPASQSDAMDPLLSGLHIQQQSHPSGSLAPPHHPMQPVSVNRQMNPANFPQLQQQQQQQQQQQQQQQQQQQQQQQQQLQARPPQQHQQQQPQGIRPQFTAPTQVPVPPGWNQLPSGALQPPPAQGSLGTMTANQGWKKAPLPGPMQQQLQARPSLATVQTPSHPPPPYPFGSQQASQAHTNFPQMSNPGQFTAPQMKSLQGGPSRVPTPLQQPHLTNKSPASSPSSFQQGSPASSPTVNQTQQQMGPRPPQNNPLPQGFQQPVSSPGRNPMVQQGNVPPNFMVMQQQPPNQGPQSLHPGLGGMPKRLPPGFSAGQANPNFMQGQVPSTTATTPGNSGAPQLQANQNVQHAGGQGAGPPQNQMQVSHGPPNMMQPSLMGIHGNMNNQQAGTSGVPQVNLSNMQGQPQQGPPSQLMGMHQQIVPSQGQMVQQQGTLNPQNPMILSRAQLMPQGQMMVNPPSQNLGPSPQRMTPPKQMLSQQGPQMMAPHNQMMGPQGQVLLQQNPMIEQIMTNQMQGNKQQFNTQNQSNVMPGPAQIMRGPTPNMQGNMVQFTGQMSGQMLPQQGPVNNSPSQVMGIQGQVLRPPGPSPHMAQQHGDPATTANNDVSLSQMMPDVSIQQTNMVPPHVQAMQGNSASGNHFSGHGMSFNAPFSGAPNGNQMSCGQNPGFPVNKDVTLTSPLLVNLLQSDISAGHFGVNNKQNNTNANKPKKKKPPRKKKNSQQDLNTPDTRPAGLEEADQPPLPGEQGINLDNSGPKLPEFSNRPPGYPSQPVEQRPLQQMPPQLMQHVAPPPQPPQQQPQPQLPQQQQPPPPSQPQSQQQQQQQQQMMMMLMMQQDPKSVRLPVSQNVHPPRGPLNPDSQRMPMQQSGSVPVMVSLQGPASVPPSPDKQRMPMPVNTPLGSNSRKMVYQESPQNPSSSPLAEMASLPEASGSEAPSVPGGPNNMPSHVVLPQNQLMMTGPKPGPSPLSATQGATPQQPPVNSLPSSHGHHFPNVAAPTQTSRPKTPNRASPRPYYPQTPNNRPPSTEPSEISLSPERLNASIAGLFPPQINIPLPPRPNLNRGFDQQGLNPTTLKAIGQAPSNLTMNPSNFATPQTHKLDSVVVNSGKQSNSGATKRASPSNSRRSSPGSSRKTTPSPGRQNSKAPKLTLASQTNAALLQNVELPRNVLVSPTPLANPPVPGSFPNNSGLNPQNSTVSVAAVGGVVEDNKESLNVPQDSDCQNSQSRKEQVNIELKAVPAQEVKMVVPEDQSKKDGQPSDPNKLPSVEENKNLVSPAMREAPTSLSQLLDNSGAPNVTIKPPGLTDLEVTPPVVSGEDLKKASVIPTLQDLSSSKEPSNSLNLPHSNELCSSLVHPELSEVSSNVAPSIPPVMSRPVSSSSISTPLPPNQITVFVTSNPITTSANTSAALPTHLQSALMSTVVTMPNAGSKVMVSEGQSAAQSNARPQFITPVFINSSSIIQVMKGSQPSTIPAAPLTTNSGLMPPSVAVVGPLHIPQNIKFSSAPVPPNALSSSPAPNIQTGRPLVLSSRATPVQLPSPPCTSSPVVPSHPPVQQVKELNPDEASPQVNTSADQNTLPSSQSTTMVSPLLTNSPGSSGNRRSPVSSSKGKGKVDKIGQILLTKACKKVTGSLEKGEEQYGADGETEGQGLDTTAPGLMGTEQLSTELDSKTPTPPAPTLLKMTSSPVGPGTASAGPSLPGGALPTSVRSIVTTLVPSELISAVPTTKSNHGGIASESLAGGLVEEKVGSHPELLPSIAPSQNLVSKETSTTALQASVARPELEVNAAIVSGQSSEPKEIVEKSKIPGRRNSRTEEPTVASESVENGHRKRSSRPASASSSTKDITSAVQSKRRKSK
UniProt Q96S97: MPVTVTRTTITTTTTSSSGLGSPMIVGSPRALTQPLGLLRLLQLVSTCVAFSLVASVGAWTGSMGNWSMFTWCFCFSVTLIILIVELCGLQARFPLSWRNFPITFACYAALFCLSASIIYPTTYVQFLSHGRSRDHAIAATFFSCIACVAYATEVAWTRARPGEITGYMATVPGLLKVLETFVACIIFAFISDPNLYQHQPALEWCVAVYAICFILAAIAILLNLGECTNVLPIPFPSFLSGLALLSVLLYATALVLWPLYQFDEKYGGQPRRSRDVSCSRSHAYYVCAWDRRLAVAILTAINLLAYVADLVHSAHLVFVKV
UniProt Q9BPX3, whole entry, looked up: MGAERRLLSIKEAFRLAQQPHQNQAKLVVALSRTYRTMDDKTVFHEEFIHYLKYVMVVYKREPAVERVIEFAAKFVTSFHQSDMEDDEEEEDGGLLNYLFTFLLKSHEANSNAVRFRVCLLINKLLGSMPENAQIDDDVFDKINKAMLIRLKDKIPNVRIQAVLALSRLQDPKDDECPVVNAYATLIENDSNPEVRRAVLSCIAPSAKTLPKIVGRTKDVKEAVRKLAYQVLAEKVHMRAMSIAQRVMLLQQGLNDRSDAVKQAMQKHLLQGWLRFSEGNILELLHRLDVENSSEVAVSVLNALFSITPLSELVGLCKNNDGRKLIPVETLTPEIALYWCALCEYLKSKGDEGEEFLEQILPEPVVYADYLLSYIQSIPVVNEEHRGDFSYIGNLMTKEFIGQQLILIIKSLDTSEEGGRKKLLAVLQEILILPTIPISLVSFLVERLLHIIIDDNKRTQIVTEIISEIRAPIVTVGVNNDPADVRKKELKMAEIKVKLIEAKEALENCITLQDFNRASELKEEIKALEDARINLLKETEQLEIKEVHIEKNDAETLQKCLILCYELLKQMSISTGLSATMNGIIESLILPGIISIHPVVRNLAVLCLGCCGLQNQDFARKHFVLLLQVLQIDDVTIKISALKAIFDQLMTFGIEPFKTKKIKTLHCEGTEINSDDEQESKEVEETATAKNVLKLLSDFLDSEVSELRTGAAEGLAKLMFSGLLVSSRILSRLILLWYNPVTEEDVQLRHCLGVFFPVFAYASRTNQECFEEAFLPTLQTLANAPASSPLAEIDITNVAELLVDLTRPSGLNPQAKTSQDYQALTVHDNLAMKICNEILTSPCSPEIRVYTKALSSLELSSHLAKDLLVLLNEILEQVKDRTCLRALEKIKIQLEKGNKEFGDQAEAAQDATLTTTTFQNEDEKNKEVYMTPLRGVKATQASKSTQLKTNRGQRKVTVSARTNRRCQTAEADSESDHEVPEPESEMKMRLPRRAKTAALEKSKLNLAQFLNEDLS
UniProt Q8TBE9: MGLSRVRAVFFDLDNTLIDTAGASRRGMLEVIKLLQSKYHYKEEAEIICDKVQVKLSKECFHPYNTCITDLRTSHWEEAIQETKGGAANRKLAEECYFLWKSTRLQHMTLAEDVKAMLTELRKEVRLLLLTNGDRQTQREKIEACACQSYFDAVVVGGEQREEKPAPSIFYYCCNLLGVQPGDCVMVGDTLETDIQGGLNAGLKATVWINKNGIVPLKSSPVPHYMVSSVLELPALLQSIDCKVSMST
UniProt Q96HR8: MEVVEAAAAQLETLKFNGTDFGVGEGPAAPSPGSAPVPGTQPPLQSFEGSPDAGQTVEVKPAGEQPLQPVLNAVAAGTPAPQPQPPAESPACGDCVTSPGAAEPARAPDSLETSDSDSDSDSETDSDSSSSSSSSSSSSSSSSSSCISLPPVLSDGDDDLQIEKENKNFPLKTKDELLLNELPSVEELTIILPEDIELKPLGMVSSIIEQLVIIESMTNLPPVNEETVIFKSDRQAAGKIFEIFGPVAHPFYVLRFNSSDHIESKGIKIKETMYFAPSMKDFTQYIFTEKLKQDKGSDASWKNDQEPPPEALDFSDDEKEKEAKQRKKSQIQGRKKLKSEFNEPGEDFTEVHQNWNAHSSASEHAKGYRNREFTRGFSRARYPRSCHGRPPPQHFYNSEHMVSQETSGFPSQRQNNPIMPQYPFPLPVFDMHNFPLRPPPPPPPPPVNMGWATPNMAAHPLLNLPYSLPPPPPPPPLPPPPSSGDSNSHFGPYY

[2] = compound: CN1CCc2c(c3ccccc3n2Cc2ccc(C(=O)NO)cc2)C1 [Tubastatin A]
Procedure, shortened: as §1

[3] = compound: CNC(=O)C1=CC=CC=C1NC2=NC(=NC=C2Cl)NC3=C(C=C(C=C3)N4CCOCC4)OC
Procedure, shortened: as §1

[4] = compound: CNC(=O)c1ccc(Nc2ncc(C(F)(F)F)c(NCc3nccnc3N(C)S(C)(=O)=O)n2)cc1 [defactinib]
Procedure, shortened: as §1

[5] = compound: CNc1nc(-c2ccc3c(N)n[nH]c3c2)cc(N2C[C@@H](C(=O)NC3CCCCC3)CC[C@H]2C)n1
Procedure, shortened: as §1

[6] = compound: COC(=O)N[C@@H](C)CNc1nccc(-c2cn(C(C)C)nc2-c2cc(Cl)cc(NS(C)(=O)=O)c2F)n1 [encorafenib]
Procedure, shortened: as §1

[7] = compound: COC(=O)[C@H](CCSC)NC(=O)C1=C(C=C(C=C1)NC[C@H](CS)N)C2=CC=CC=C2
Procedure, shortened: as §1

[8] = compound: COc1cc(Nc2ncc3c(n2)-c2ccc(Cl)cc2C(c2c(F)cccc2OC)=NC3)ccc1C(=O)O [alisertib]
Procedure, shortened: as §1

[9] = compound: COc1cc2nc(-c3cc(F)ccc3O)nc(N[C@@H]3CNC[C@H]3C(C)(C)O)c2cc1OC
Procedure, shortened: as §1

[10] = compound: COc1cc2ncnc(Nc3ccc(F)c(Cl)c3)c2cc1OCCCN1CCOCC1 [gefitinib]
Procedure, shortened: as §1

[11] = compound: CS(=O)(=O)CCNCc1ccc(-c2ccc3ncnc(Nc4ccc(OCc5cccc(F)c5)c(Cl)c4)c3c2)o1 [lapatinib]
Procedure, shortened: as §1

[12] = compound: CS(=O)(=O)N1CCN(Cc2cc3nc(-c4cccc5[nH]ncc45)nc(N4CCOCC4)c3s2)CC1 [pictilisib]
Procedure, shortened: as §1

[13] = compound: C[C@@H](Oc1cc(-c2cnn(C3CCNCC3)c2)cnc1N)c1c(Cl)ccc(F)c1Cl [crizotinib]
Procedure, shortened: as §1

[14] = compound: C[C@H](C1=CC=C(C=C1)C(=O)NC2=C3C=CNC3=NC=C2)N
Procedure, shortened: as §1

[15] = compound: C[C@H](Nc1ncnc2nc[nH]c12)c1cc2cccc(Cl)c2c(=O)n1-c1ccccc1 [duvelisib]
Procedure, shortened: as §1

[16] = compound: Cc1cc(Nc2cc(CN3CCOCC3)c3nc(C)c(Cc4ccc(Cl)cc4F)n3n2)n[nH]1 [gandotinib]
Procedure, shortened: as §1

[17] = compound: Cc1cc(Nc2cc(N3CCN(C)CC3)nc(Sc3ccc(NC(=O)C4CC4)cc3)n2)n[nH]1 [tozasertib]
Procedure, shortened: as §1

[18] = compound: Cc1ccc(-n2nc(C(C)(C)C)cc2NC(=O)Nc2ccc(OCCN3CCOCC3)c3ccccc23)cc1 [doramapimod]
Procedure, shortened: as §1

[19] = compound: Cc1ccc(NC(=O)c2ccc(CN3CC[C@H](N(C)C)C3)c(C(F)(F)F)c2)cc1Nc1nccc(-c2cncnc2)n1 [bafetinib]
Procedure, shortened: as §1

[20] = compound: Cc1cccc(CC(=O)N2CCc3c2ccc(-c2cn(C)c4ncnc(N)c24)c3F)n1
Procedure, shortened: as §1

Measured: log2 fold change

NCALD (UniProt P61601)
inactive: [1] -0.034 | [2] 0.047 | [3] 0.004 | [4] 0.036 | [5] -0.131 | [6] 0.011 | [7] -0.063 | [8] -0.011 | [9] 0.024 | [10] -0.002 | [11] -0.035 | [12] -0.056 | [13] 0.005 | [14] -0.019 | [15] 0.022 | [16] 0.044 | [17] 0.029 | [18] 0.061 | [19] -0.01 | [20] 0.002

NAA10 (UniProt P41227)
inactive: [1] 0.026 | [2] -0.003 | [3] 0.009 | [4] -0.013 | [5] -0.012 | [6] 0.005 | [7] 0.015 | [8] 0.01 | [9] -0.005 | [10] -0.015 | [11] -0.009 | [12] 0.003 | [13] 0.064 | [14] 0.041 | [15] -0.021 | [16] -0.056 | [17] 0.01 | [18] 0.016 | [19] -0.008 | [20] -0.067

NAGA (UniProt P17050)
inactive: [1] 0 | [2] 0.024 | [3] 0.053 | [4] 0.012 | [5] 0.016 | [6] 0.044 | [7] -0.021 | [8] 0.001 | [9] 0.003 | [10] 0.102 | [11] -0.063 | [12] -0.048 | [13] 0 | [14] 0.039 | [15] 0.011 | [16] -0.006 | [17] -0.041 | [18] -0.083 | [19] 0.113 | [20] -0.046

MYH9 (UniProt P35579)
inactive: [1] -0.005 | [2] 0.026 | [3] -0.017 | [4] -0.01 | [5] 0.032 | [6] -0.032 | [7] 0.025 | [8] -0.009 | [9] 0.017 | [10] -0.029 | [11] -0.036 | [12] -0.001 | [13] 0.016 | [14] 0.011 | [15] 0.017 | [16] -0.004 | [17] -0.004 | [18] -0.01 | [19] -0.001 | [20] -0.001

NCL (UniProt P19338)
inactive: [1] 0.029 | [2] 0.038 | [3] -0.028 | [4] -0.017 | [5] 0.008 | [6] -0.03 | [7] 0.005 | [8] -0.004 | [9] 0.001 | [10] -0.001 | [11] -0.022 | [12] 0.011 | [13] 0.016 | [14] 0.026 | [15] 0.035 | [16] -0.024 | [17] 0.006 | [18] -0.018 | [19] 0.032 | [20] -0.01

NCOA6 (UniProt Q14686)
inactive: [1] -0.016 | [2] -0.02 | [3] 0.047 | [4] 0.068 | [5] 0.045 | [6] 0.04 | [7] 0.011 | [8] -0.032 | [9] -0.022 | [10] 0.018 | [11] 0.014 | [12] -0.025 | [13] 0.001 | [14] -0.056 | [15] -0.048 | [16] 0.016 | [17] -0.039 | [18] -0.062 | [19] -0.037 | [20] -0.003

MYOM1 (UniProt P52179)
inactive: [1] 0.039 | [2] -0.033 | [3] -0.092 | [4] 0.194 | [5] 0.139 | [6] 0.065 | [7] -0.011 | [8] 0.215 | [9] -0.06 | [10] 0.026 | [11] 0.099 | [12] 0.009 | [13] 0.054 | [14] -0.082 | [15] -0.02 | [16] 0.065 | [17] -0.137 | [18] -0.436 | [19] -0.252 | [20] 0.05

MYADM (UniProt Q96S97)
inactive: [1] -0.068 | [2] -0.045 | [3] 0.027 | [4] -0.019 | [5] 0.007 | [6] 0.055 | [7] 0.01 | [8] 0.016 | [9] -0.004 | [10] 0.008 | [11] 0.045 | [12] -0.033 | [13] -0.033 | [14] -0.06 | [15] -0.005 | [16] 0.021 | [17] -0.109 | [18] 0.003 | [19] 0.04 | [20] 0.049

NCBP3 (UniProt Q53F19)
inactive: [1] -0.034 | [2] 0.009 | [3] 0.076 | [4] 0.09 | [5] 0.015 | [6] 0.036 | [7] 0.069 | [8] -0.03 | [9] -0.035 | [10] 0.01 | [11] 0.002 | [12] -0.107 | [13] -0.063 | [14] -0.042 | [15] -0.047 | [16] -0.092 | [17] -0.031 | [18] 0.122 | [19] -0.124 | [20] 0.082

NCAPG (UniProt Q9BPX3)
inactive: [1] 0.003 | [2] -0.113 | [3] 0.011 | [4] 0.024 | [5] 0.01 | [6] -0.01 | [7] 0.094 | [8] 0.007 | [9] -0.01 | [10] 0.003 | [11] -0.029 | [12] 0 | [13] -0.074 | [14] -0.028 | [15] -0.007 | [16] -0.094 | [17] -0.011 | [18] 0.026 | [19] -0.035 | [20] 0.011

NANP (UniProt Q8TBE9)
inactive: [1] -0.052 | [2] -0.032 | [3] 0.104 | [4] 0.067 | [5] 0.059 | [6] 0.119 | [7] -0.18 | [8] 0.035 | [9] -0.015 | [10] 0.023 | [11] -0.037 | [12] -0.09 | [13] 0.008 | [14] -0.124 | [15] -0.006 | [16] 0.065 | [17] 0.037 | [18] 0.004 | [19] -0.045 | [20] 0.101

NCOA1 (UniProt Q15788)
inactive: [1] -0.01 | [2] -0.027 | [3] 0.043 | [4] -0.076 | [5] 0.026 | [6] 0.075 | [7] 0.012 | [8] -0.017 | [9] 0.011 | [10] -0.053 | [11] 0.001 | [12] -0.024 | [13] 0.012 | [14] -0.043 | [15] 0.029 | [16] 0.041 | [17] 0.002 | [18] -0.024 | [19] -0.004 | [20] 0.018

Taken from the entries so far (three entries):
MYADM (UniProt Q96S97)
inactive: [1] -0.068 | [2] -0.045 | [3] 0.027 | [4] -0.019 | [5] 0.007 | [6] 0.055 | [7] 0.01 | [8] 0.016 | [9] -0.004 | [10] 0.008 | [11] 0.045 | [12] -0.033 | [13] -0.033 | [14] -0.06 | [15] -0.005 | [16] 0.021 | [17] -0.109 | [18] 0.003 | [19] 0.04 | [20] 0.049

NCBP3 (UniProt Q53F19)
inactive: [1] -0.034 | [2] 0.009 | [3] 0.076 | [4] 0.09 | [5] 0.015 | [6] 0.036 | [7] 0.069 | [8] -0.03 | [9] -0.035 | [10] 0.01 | [11] 0.002 | [12] -0.107 | [13] -0.063 | [14] -0.042 | [15] -0.047 | [16] -0.092 | [17] -0.031 | [18] 0.122 | [19] -0.124 | [20] 0.082

NCAPG (UniProt Q9BPX3)
inactive: [1] 0.003 | [2] -0.113 | [3] 0.011 | [4] 0.024 | [5] 0.01 | [6] -0.01 | [7] 0.094 | [8] 0.007 | [9] -0.01 | [10] 0.003 | [11] -0.029 | [12] 0 | [13] -0.074 | [14] -0.028 | [15] -0.007 | [16] -0.094 | [17] -0.011 | [18] 0.026 | [19] -0.035 | [20] 0.011

(further entries)

NADSYN1 (UniProt Q6IA69)
inactive: [1] 0.035 | [2] 0.009 | [3] -0.016 | [4] 0.017 | [5] 0.035 | [6] -0.006 | [7] 0.003 | [8] -0.035 | [9] 0.027 | [10] 0.055 | [11] -0.018 | [12] 0.005 | [13] 0.042 | [14] 0.036 | [15] 0.017 | [16] -0.023 | [17] -0.025 | [18] 0 | [19] -0.021 | [20] -0.04

NAF1 (UniProt Q96HR8)
inactive: [1] -0.003 | [2] -0.028 | [3] 0.016 | [4] -0.015 | [5] -0.028 | [6] -0.015 | [7] -0.038 | [8] 0 | [9] -0.063 | [10] -0.006 | [11] -0.066 | [12] 0.073 | [13] 0.068 | [14] 0.028 | [15] -0.003 | [16] 0.026 | [17] -0.036 | [18] -0.002 | [19] -0.003 | [20] -0.019

MYO19 (UniProt Q96H55)
inactive: [1] 0.162 | [2] -0.048 | [3] 0.046 | [4] 0.115 | [5] 0.075 | [6] -0.034 | [7] 0.111 | [8] 0.015 | [9] -0.011 | [10] -0.077 | [11] -0.02 | [12] -0.182 | [13] 0.013 | [14] 0.026 | [15] -0.075 | [16] -0.16 | [17] 0.061 | [18] -0.075 | [19] -0.023 | [20] -0.03

NCAPD3 (UniProt P42695)
inactive: [1] -0.006 | [2] -0.224 | [3] 0.017 | [4] 0.017 | [5] 0.013 | [6] 0.037 | [7] -0.018 | [8] -0.017 | [9] 0 | [10] -0.002 | [11] -0.015 | [12] -0.009 | [13] -0.065 | [14] -0.013 | [15] -0.004 | [16] -0.099 | [17] -0.013 | [18] 0.02 | [19] -0.024 | [20] 0.047

Source: the supplement of paper PMC10849652
